Measured values: publication PMC3507880, “Rationale-Based Engineering of a Potent Long-Acting FGF21 Analog for the Treatment of Type 2 Diabetes” (PLoS ONE, 2012)
Residue numbers refer to the chain shown, from its start. These are yes or no findings as the source states them, for the method shown.

Legend:
[1] = target: wild type human mature FGF21 (human) (UniProt Q9NSA1); assay: SEC; SEC-HPLC (Bio-Sil SEC-250, 2x PBS with 2% isopropyl alcohol); 65 mg/ml in 10 mM potassium phosphate, 5% sorbitol, pH 8.0; time 0; both purified
[2] = target: Fc-FGF21 (N-terminal Fc fusion of human mature FGF21, wild type) (human) (UniProt Q9NSA1); assay: as above
Fc-FGF21(RG) (human) [3] = target: Fc-FGF21(RG) (human) (UniProt Q9NSA1); assay: as above
Fc-FGF21(RG) (human) [4] = target: Fc-FGF21(RG) (human) (UniProt Q9NSA1); assay: SEC; SEC-HPLC (Bio-Sil SEC-250, 2x PBS with 2% isopropyl alcohol); 65 mg/ml in 10 mM potassium phosphate, 5% sorbitol, pH 8.0; stored at 25°C or 4°C for 2 to 9 days; high molecular weight species as % of total; both purified

B1: wild type human mature FGF21 (protein)
chain: HPIPDSSPLLQFGGQVRQRYLYTDDAQQTEAHLEIREDGTVGGAADQSPESLLQLKALKPGVIQILGVKTSRFLCQRPDGALYGSLHFDPEACSFRELLLEDGYNVYQSEAHGLPLHLPGNKSPHRDPAPRGPARFLPLPGLPPALPEPPGILAPQPPDVGSSDPLSMVGPSQGRSPSYAS
binding [1]: no binding (condition: at time 0, 65 mg/ml)

B2: Fc-FGF21 (N-terminal Fc fusion of human mature FGF21, wild type) (Fc fusion, UniProt Q9NSA1 29-209, looked up)
chain: B1 chain
binding [2]: no binding (condition: at time 0, 65 mg/ml)

B3: Fc-FGF21(RG) (protein)
chain: B1 chain with L98R, P171G
binding (Fc-FGF21(RG) (human) [3]): no binding (tested: 65 mg/ml) | binding (Fc-FGF21(RG) (human) [4]): no binding (tested: 65 mg/ml)
